Experimental data reported in the supplement of paper PMC10849652.
This is one part of the list. Residues, ends and D or L forms follow the SMILES beside them. *: point of attachment. Cbz = O=C(OCc1ccccc1)*

Sequences of proteins named here, by UniProt entry; tags and fusion partners are left off. A change or cut given only in a name is not applied to a line headed by its entry.
UniProt Q16643: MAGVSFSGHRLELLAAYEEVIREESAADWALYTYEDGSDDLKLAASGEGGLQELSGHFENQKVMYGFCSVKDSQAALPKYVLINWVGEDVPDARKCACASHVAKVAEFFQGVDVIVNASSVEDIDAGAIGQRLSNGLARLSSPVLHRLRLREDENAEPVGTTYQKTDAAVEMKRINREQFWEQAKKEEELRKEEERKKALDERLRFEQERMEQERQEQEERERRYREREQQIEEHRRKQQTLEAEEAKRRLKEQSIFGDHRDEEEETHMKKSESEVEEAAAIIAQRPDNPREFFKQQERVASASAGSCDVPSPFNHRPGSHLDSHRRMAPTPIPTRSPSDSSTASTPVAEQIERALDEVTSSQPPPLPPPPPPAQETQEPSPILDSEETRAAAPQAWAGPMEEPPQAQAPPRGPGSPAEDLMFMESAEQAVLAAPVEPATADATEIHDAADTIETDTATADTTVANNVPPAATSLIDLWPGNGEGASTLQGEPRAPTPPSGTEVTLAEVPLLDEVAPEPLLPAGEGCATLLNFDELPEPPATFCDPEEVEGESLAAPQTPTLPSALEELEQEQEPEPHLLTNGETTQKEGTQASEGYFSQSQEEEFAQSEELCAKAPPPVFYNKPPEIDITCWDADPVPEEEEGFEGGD
UniProt Q6ZWL3: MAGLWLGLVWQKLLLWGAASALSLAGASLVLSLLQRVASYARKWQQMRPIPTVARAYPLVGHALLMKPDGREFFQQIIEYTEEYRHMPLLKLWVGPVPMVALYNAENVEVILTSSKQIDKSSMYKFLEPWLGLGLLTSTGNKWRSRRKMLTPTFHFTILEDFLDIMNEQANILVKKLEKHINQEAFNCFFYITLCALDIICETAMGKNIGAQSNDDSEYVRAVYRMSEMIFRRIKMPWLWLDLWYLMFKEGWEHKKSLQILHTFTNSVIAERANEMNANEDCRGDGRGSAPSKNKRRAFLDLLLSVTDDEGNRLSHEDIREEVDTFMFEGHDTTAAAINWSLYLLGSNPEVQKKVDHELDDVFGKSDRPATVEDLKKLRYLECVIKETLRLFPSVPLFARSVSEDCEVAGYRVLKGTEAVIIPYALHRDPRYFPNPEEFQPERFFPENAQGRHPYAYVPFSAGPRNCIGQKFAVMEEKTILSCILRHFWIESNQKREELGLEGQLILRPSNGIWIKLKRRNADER
UniProt Q9H1C7: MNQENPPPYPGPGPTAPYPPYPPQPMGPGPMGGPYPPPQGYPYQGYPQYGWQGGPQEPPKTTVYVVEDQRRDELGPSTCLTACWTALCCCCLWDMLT
UniProt Q01459: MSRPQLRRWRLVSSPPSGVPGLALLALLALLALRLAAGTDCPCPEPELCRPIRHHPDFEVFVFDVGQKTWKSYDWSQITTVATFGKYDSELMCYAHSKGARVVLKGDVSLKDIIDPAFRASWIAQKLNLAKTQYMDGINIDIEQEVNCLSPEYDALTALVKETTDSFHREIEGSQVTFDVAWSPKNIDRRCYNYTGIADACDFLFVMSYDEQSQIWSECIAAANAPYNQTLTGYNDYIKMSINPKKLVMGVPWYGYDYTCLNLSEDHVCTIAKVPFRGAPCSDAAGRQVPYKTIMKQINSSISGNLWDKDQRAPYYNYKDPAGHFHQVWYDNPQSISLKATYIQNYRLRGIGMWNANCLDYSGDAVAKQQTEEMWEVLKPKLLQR
UniProt P49447: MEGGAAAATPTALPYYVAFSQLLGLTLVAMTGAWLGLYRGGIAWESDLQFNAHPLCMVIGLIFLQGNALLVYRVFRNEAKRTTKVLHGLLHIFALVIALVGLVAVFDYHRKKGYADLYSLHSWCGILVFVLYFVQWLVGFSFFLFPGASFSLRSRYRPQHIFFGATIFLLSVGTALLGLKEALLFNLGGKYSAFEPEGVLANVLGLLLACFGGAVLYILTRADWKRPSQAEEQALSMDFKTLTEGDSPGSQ
UniProt Q58WW2: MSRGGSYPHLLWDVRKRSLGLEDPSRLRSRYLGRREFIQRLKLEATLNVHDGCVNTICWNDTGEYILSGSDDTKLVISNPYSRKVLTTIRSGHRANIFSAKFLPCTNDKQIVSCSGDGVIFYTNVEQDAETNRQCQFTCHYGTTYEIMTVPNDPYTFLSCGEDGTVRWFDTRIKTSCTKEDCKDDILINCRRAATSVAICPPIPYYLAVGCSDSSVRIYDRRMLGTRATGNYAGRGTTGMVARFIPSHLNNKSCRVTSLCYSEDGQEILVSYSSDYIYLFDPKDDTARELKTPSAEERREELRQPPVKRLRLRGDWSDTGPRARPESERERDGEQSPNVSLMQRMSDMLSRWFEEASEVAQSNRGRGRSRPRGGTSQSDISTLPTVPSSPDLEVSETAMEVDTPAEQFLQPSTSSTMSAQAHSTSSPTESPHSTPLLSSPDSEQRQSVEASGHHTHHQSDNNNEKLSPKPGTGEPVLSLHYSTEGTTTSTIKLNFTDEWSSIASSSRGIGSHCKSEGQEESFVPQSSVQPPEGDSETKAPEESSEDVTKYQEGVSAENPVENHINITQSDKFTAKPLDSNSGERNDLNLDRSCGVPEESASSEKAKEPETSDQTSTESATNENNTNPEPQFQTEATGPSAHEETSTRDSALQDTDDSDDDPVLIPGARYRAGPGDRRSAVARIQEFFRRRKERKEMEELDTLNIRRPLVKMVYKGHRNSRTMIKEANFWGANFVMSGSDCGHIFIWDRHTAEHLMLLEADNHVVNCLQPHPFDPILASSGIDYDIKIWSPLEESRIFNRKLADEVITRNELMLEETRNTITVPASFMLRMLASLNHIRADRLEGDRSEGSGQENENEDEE
UniProt Q14118: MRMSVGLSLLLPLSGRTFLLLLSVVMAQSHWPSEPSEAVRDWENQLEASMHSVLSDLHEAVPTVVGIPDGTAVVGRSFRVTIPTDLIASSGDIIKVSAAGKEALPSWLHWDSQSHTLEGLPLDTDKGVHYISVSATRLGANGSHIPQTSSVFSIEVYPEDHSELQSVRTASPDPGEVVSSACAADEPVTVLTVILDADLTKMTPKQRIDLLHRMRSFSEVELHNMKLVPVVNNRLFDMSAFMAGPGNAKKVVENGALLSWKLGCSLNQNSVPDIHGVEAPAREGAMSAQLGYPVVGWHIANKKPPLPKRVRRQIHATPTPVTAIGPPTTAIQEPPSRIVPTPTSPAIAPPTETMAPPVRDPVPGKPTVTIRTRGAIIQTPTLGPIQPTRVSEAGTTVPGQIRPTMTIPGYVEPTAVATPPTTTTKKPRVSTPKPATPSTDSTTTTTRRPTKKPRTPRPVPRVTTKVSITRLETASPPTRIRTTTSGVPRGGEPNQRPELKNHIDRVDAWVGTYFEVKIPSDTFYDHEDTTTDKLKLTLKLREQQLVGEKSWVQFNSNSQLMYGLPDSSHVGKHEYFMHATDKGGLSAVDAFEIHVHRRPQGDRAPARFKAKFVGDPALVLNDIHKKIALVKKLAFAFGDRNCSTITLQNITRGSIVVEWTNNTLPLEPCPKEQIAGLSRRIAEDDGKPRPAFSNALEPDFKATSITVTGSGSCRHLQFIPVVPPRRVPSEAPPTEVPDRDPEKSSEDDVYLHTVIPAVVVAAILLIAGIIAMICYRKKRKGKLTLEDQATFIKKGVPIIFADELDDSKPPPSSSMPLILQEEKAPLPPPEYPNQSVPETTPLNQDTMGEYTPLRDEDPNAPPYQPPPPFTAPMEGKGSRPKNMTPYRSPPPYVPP
UniProt Q9UER7, whole entry, looked up: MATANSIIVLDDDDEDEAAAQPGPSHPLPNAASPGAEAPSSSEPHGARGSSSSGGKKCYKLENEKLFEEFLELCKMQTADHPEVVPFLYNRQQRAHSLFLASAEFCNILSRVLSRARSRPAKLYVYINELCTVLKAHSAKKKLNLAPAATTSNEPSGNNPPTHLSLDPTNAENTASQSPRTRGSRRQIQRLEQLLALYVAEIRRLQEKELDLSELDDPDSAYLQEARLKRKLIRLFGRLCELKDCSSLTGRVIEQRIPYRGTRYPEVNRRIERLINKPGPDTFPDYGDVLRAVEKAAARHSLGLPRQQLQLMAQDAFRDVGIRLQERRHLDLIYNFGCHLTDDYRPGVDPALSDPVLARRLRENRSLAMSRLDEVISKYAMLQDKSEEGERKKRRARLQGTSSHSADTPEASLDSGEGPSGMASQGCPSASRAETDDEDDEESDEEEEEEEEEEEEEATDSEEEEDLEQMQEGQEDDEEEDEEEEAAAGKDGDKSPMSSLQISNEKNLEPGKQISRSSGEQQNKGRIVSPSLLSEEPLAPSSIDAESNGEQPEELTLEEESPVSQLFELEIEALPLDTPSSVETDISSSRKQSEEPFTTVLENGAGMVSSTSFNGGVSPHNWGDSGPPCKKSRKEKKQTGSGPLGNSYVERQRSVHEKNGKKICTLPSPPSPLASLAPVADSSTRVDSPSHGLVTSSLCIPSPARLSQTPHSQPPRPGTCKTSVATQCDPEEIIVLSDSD
UniProt Q9Y6A2: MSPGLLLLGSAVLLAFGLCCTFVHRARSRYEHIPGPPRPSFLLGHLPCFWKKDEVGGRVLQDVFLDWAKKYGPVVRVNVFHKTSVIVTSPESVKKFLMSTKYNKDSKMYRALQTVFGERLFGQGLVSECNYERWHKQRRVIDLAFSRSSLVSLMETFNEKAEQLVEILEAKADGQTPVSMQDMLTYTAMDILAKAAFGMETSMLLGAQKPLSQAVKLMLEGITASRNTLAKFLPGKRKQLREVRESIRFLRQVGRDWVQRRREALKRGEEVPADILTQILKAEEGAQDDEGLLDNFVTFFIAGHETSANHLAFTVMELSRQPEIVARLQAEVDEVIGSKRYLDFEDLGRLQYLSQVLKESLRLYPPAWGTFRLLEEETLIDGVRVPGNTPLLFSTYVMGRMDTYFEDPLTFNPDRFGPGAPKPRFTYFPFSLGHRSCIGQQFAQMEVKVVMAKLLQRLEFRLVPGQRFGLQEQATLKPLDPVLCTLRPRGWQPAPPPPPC

Legend:
Assay in all cases: log2 fold change, soluble protein after heating vs DMSO (PISA); higher = thermal stabilisation; K562 cells, 10 uM, 30 min; active = over 0.2 and 3.5 SD of the protein, either way, in both replicates (recomputed)
[1] = compound: C1COCCN1CCN2C3=CC=CC=C3N=C2NC(=O)C4=CC(=CC=C4)[N+](=O)[O-] [IRAK-1-4 Inhibitor I]
Outline: (§1)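 K562 cells at 2×10^6 cells/mL were exposed to 10 μM compound for 30 min, then aliquots were heated for 3 min across 48°C-58°C, pooled, and extracted in PBS containing 0.5% NP-40 at 4°C. The supernatant after 21,000xg for 90 min was taken as soluble protein and measured by TMTpro 16plex LC-MS/MS with channel sums equalised. Thermal stability is reported relative to control samples, with values from duplicates. Fold changes are given on a log2 scale.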

[2] = compound: C=CC(=O)N1CCC[C@@H](n2nc(-c3ccc(Oc4ccccc4)cc3)c3c(N)ncnc32)C1 [ibrutinib]
Outline: as §1

[3] = compound: CC(=O)c1cnc2ccc(-c3cc(Cl)c(O)c(Cl)c3)nc2c1N[C@H]1CC[C@H](CN(C)C)CC1
Outline: as §1

[4] = compound: CC(C)(C)Cn1c(N)nc2ccc(-c3[nH]c(C(C)(C)C)nc3-c3ccc(F)cc3)nc21 [ralimetinib]
Outline: as §1

[5] = compound: CC(C)(O)CC(=O)NCCn1ccc2ncnc(Nc3ccc(Oc4cccc(C(F)(F)F)c4)c(Cl)c3)c21
Outline: as §1

[6] = compound: CC(C)C1=C2N=C(C=C(N2N=C1)NCC3=CC=CC=C3)NCCCCCCN
Outline: as §1

[7] = compound: CC(C)C[C@@H](C=O)NC(=O)[C@H](CC(C)C)NC(=O)[C@H](CC(C)C)NC(=O)OCc1ccccc1
Outline: as §1

[8] = compound: CC(C)N(C[C@H]1O[C@@H](n2cnc3c(N)ncnc32)[C@H](O)[C@@H]1O)[C@H]1C[C@@H](CCc2nc3cc(C(C)(C)C)ccc3[nH]2)C1 [pinometostat]
Outline: as §1

[9] = compound: CC1=C(C2=C(C=C1)C(=O)C3=CC=CC=C3N2CCCN)C
Outline: as §1

[10] = compound: CC1=C(C=C(C=C1)NC(=O)C2=CC(=CC=C2)C(C)(C)C#N)NC3=CC4=C(C=C3)N=CN(C4=O)C
Outline: as §1

[11] = compound: CC1=C(C=C(C=C1)NC(=O)C2=CC(=CC=C2)N(C)C)NC(=O)C3=CC=C(C=C3)O
Outline: as §1

[12] = compound: CC1=CC=C(C=C1)SC2=C3C=C(SC3=CN=C2)C(=O)N
Outline: as §1

[13] = compound: CC1=NC(=CC=C1)C2=C(N=C(N2)C(C)(C)C)C3=CC4=NC=CN=C4C=C3
Outline: as §1

[14] = compound: CCCCN(Cc1ccc(C(=O)NO)cc1)C(=O)Nc1ccccc1 [Nexturastat A]
Outline: as §1

[15] = compound: CCCS(=O)(=O)Nc1ccc(F)c(C(=O)c2c[nH]c3ncc(-c4ccc(Cl)cc4)cc23)c1F [vemurafenib]
Outline: as §1

[16] = compound: CCCS(=O)(=O)Nc1ccc(F)c(C(=O)c2c[nH]c3ncc(Cl)cc23)c1F
Outline: as §1

[17] = compound: CCCc1cc(C)[nH]c(=O)c1CNC(=O)c1cc(-c2ccnc(N3CCN(C)CC3)c2)cc2c1cnn2C(C)C
Outline: as §1

[18] = compound: CCN(CC)Cc1ccc2cc(COC(=O)Nc3ccc(C(=O)NO)cc3)ccc2c1 [givinostat]
Outline: as §1

[19] = compound: CCN(CCCOc1ccc2c(Nc3cc(CC(=O)Nc4cccc(F)c4)[nH]n3)ncnc2c1)CCOP(=O)(O)O [barasertib]
Outline: as §1

[20] = compound: CC1=C(C(CC(=O)N1)C2=CC=C(C=C2)C(F)(F)F)C(=O)NC3=C(C=C4C(=C3)C=NN4)F
Outline: as §1

Measured: log2 fold change

DBN1 isoform 3 (UniProt Q16643)
inactive: [1] -0.06 | [2] 0.099 | [3] 0.061 | [4] 0.072 | [5] 0.151 | [6] 0.047 | [7] -0.02 | [8] -0.005 | [9] -0.091 | [10] -0.079 | [11] 0.045 | [12] 0.016 | [13] -0.002 | [14] 0.104 | [15] 0.075 | [16] 0.032 | [17] -0.062 | [18] -0.026 | [19] -0.038

CYP4V2 (UniProt Q6ZWL3)
inactive: [1] 0.037 | [3] -0.075 | [4] 0.026 | [5] 0.11 | [6] -0.056 | [7] -0.239 | [8] -0.017 | [11] -0.054 | [13] -0.06 | [14] 0.098 | [15] -0.1 | [18] -0.063

CYSTM1 (UniProt Q9H1C7)
inactive: [1] 0.039 | [2] -0.062 | [3] -0.037 | [4] -0.003 | [6] -0.227 | [7] -0.046 | [8] -0.032 | [20] -0.116 | [9] -0.102 | [10] -0.015 | [11] 0.117 | [12] -0.035 | [13] -0.009 | [15] 0.015 | [16] 0.004 | [17] 0.238 | [18] -0.037 | [19] 0.19

CTBS (UniProt Q01459)
inactive: [1] 0.073 | [2] 0.067 | [3] -0.082 | [4] -0.035 | [5] 0.018 | [6] -0.151 | [7] -0.028 | [8] -0.009 | [9] -0.061 | [10] 0.206 | [11] 0.014 | [12] -0.026 | [13] -0.065 | [14] 0.043 | [15] 0.093 | [16] -0.017 | [17] 0.017 | [18] 0.039 | [19] 0.03

CYB561 (UniProt P49447)
inactive: [1] 0.122 | [2] 0.044 | [3] -0.111 | [4] -0.175 | [6] 0.067 | [7] -0.087 | [8] -0.1 | [20] 0.048 | [9] 0.029 | [11] -0.015 | [12] 0.077 | [13] -0.054 | [15] 0.391 | [16] 0.001 | [17] -0.106 | [18] -0.004 | [19] -0.078

DCAF6 isoform 3 (UniProt Q58WW2)
inactive: [1] 0.025 | [2] -0.004 | [3] -0.018 | [4] -0.022 | [5] -0.022 | [6] 0.056 | [7] 0.023 | [8] -0.004 | [9] -0.034 | [10] 0.016 | [11] -0.035 | [12] -0.034 | [13] -0.037 | [14] -0.041 | [15] -0.032 | [16] -0.047 | [17] 0.011 | [18] -0.058 | [19] 0.008

DAG1 (UniProt Q14118)
inactive: [1] -0.019 | [2] -0.024 | [3] -0.029 | [4] -0.076 | [5] 0.003 | [6] 0.169 | [7] 0.008 | [8] 0.04 | [9] 0.067 | [10] -0.053 | [11] -0.019 | [12] -0.013 | [13] 0.001 | [14] -0.005 | [15] 0.005 | [16] -0.06 | [17] -0.028 | [18] 0.019 | [19] 0.011

DAXX (UniProt Q9UER7)
inactive: [1] 0.13 | [2] 0.091 | [3] 0.008 | [4] 0.218 | [6] 0.243 | [7] 0.088 | [8] -0.049 | [9] 0.078 | [10] 0.019 | [11] -0.02 | [12] 0.031 | [13] -0.165 | [15] -0.058 | [16] 0.031 | [18] 0.352 | [19] -0.025

CYP46A1 (UniProt Q9Y6A2)
inactive: [1] 0.036 | [2] -0.022 | [3] -0.077 | [4] -0.273 | [7] 0.235 | [8] 0.033 | [9] -0.033 | [10] -0.046 | [11] 0.019 | [12] -0.195 | [13] -0.193 | [15] -0.051 | [16] -0.336 | [17] -0.162 | [19] 0.006
